The record followed here is article PMC4077737.

Sequences of proteins named here, by UniProt entry; tags and fusion partners are left off. A change or cut given only in a name is not applied to a line headed by its entry.
UniProt P51532: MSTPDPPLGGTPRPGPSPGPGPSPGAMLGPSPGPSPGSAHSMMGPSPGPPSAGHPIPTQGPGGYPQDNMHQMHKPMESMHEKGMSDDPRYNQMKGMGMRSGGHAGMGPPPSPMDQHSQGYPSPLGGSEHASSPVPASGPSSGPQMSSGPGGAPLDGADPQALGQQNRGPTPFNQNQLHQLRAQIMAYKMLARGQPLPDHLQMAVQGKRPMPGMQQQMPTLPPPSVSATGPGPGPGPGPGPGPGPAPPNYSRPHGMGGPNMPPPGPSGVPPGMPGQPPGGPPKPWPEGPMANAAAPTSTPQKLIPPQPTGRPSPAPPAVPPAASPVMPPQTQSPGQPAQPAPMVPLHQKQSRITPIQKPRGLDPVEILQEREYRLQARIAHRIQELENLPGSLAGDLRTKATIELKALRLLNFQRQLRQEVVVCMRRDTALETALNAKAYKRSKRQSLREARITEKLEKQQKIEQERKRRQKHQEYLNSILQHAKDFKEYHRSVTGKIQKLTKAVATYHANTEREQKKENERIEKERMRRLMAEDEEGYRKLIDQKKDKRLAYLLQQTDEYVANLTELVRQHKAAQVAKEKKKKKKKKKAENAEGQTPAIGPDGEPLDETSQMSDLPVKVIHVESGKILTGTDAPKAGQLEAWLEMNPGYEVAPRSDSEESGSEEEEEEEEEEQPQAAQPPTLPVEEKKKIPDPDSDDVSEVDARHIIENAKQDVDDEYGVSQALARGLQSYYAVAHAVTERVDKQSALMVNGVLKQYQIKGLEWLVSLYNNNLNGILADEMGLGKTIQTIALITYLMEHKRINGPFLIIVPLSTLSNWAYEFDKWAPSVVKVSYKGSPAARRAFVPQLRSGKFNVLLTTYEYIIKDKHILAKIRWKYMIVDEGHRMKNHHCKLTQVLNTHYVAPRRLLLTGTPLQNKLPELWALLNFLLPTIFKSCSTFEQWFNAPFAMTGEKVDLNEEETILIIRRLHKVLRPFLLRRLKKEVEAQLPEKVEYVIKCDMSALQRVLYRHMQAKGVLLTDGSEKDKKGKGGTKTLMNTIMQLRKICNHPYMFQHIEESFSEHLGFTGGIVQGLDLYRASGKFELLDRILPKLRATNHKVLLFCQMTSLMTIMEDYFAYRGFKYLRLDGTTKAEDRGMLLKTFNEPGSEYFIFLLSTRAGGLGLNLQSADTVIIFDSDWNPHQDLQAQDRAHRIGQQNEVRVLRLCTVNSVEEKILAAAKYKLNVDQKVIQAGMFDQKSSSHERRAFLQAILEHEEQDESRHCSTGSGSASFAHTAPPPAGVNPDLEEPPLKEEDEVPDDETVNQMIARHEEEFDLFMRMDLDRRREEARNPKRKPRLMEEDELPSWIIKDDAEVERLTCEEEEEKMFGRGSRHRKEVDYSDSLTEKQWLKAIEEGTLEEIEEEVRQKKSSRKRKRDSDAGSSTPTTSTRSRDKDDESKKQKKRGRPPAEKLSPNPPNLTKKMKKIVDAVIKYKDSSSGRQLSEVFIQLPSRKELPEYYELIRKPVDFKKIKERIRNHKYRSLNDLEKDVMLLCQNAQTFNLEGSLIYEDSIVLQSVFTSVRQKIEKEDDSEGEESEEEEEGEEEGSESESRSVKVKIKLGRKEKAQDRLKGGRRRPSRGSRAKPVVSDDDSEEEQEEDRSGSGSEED
UniProt O14746: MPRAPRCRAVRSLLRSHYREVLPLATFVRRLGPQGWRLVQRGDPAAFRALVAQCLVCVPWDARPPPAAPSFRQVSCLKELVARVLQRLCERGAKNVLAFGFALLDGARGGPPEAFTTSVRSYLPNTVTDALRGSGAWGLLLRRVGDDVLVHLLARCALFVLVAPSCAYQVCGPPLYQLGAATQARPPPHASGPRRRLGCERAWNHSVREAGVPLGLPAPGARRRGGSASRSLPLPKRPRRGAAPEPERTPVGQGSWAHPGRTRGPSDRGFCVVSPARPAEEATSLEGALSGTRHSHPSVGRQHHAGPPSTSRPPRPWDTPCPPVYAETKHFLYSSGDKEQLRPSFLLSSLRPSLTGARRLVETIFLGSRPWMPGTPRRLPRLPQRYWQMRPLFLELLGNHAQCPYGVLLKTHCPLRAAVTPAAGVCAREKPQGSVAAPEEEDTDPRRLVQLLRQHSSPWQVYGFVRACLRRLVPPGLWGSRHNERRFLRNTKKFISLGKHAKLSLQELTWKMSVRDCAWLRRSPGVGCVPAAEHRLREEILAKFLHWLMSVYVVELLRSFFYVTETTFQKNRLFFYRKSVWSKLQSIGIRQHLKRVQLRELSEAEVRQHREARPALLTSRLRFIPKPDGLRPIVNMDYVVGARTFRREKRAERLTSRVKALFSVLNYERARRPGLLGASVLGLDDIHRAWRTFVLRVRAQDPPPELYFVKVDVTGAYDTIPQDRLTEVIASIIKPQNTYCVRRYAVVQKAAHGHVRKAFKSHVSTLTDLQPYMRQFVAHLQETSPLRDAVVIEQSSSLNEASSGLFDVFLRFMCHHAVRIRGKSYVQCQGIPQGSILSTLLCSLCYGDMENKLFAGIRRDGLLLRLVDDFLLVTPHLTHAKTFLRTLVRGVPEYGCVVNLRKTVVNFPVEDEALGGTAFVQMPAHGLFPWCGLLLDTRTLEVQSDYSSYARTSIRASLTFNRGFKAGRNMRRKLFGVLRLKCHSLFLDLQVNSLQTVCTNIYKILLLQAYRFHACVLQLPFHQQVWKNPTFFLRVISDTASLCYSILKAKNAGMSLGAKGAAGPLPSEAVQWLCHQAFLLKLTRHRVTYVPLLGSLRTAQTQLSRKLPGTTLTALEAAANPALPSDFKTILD
UniProt P35222: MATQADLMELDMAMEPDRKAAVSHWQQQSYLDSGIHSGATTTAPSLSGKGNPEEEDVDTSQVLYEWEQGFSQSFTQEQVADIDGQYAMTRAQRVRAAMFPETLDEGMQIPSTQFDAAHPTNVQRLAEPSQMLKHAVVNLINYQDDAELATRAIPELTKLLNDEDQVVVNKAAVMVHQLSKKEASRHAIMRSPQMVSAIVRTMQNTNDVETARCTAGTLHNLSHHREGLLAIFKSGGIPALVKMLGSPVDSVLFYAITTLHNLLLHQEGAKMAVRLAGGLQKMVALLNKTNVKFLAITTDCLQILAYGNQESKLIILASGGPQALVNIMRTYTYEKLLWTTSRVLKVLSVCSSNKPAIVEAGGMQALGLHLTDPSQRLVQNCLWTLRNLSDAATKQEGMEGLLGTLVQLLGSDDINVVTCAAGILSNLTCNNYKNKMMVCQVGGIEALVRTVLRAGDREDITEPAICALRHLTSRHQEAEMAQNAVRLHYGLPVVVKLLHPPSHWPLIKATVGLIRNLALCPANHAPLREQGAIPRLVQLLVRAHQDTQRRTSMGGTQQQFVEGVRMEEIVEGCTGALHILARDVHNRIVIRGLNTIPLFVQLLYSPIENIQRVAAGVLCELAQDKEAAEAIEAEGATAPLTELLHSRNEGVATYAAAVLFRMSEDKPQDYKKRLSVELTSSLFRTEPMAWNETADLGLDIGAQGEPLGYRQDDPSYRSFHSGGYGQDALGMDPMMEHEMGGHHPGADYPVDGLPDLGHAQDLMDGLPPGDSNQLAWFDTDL

Results are given in words; binding and its absence hold for the method and conditions named. In cells and extracts the contact can be indirect. Some entries that bind do so weakly or less than the wild type.

Common to all, as to experiment: co-IP; HeLa cells transiently transfected with control vector, wtTERT or TERT variants; lysates immunoprecipitated with anti-TERT (Rocklands), anti-BRG-1 (Millipore) or anti-β-catenin (Abcam); immunoblot
A general note: Immunoblotting shows a protein as a band on a membrane.

For test [1], the target named is BRG-1 (human (endogenous in HeLa)) (UniProt P51532).
Test [2] deals with TERT variant G260D (human) (UniProt O14746).
Test [3] deals with wild-type telomerase reverse transcriptase (wtTERT) (human) (UniProt O14746).
Test [4] concerns the target β-catenin (human (endogenous in HeLa)) (UniProt P35222).

With β-catenin (from UniProt P35222 1-781), the binding entry in test [1], in test [2] and in test [3] was “binds” in each case. Turning to “TERT variant G260D (from UniProt O14746 1-1132)”, the binding result in test [4] is recorded as “binds”. Consider “wild-type telomerase reverse transcriptase (wtTERT) (from UniProt O14746 1-1132)”, for which the binding entry in test [4] is “binds”.

Turning to BRG-1 (from UniProt P51532 1-1647), the binding entry in test [4] is “binds”.
